Test results published in paper PMC3443672, “The solution structure of the prototype foamy virus RNase H domain indicates an important role of the basic loop in substrate binding”.
Results are given in words; binding and its absence hold for the method and conditions named.

Target: PFV RNase H-(Q591-N751) (prototype foamy virus (PFV)) (UniProt P14350)
Test: 15N NMR spin relaxation (R1, R2, rotational correlation time); 1 mM and 0.4 mM 15N-labelled RNase H; 5 mM Na-phosphate pH 7.0, 100 mM NaCl, 0.5 mM DTT, 6 mM MgCl2, 10 % D2O; 298 K; 600 MHz; tc 12.4 ns, isotropic model; both purified

For “PFV RNase H-(Q591-N751) (from UniProt P14350 591-751) (domain or fragment)”, the binding was “no binding (tested: 1 mM and 0.4 mM)”.
